In patent US5028609A, “Alkyl diamine derivatives” (Alkaloida Vegyeszeti Gyar, priority 1983, dated 1991):
At least one read-out could not be matched to a standard name with certainty.

Test system: aconitine arrhythmia on rats
Assay: preventive aconitine arrhythmia test on rats
Format: in vivo, rats of Wistar strain
Conditions: 8.0 mg/kg i.v., 2 min before aconitine; no arrhythmia within 30 min = positive
Procedure: The antiarrhythmic activity of the compounds of the Formula I was compared in a preventive aconitine arrhythmia test on rats as follows:
rats of Wistar strain weighing 200 to 250 g. were narcotized i.p. with 1.25 g./kg. of urethane and their ECG was registered by a Hellige equipment by II standard limb head.
Arrhythmia was induced by an i.v. infusion of 30 /ug/kg. aconitine nitrate whereafter the ECG was continuously monitored for 30 minutes.
Those cases were considered positive, where within 30 minutes after the aconitine infusion not a single phase of the arrhythmia occurred.
In control animals pretreated i.v. with a 0.9% sodium chloride solution (0.1 ml./100 g.) (n=20) the arrhythmogenic activity of the aconitine nitrate appeared after 2.88±0.32 minutes.
Per cent values of the positive cases, average time of the appearance of the arrhythmia-when the induced arrhythmia appeared within 30 minutes and toxicity values are shown.

Work on `CCN(CC)CCNC(=O)c1ccc(N)cc1` [procainamide, reference compound] yielded a positive cases of 40%.
